In PubChem BioAssay AID493014 (National Center for Advancing Translational Sciences (NCATS), 2011) one finds AC50 data, which are given here for 63 compounds.

This is one part of the list. The main result of the screen is listed elsewhere. These columns were measured beside it and carry no call. Most of these compounds were active or inconclusive in the main read-out, so they are no random draw. Words in brackets tell the shape of the fitted curve; partial curves, single points and poor fits give uncertain potencies.

A short description of the test: qHTS Assay to Find Inhibitors of Chronic Active B-Cell Receptor Signaling. The following applies: ABC-DLBCL IkBa-CBG/CBR reporter, luminescence ratio (green luciferase fused to IkBa over red control in TMD8 lymphoma cells), 4 h. An outline of the steps: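 TMD8 human ABC-DLBCL cells with doxycycline-inducible IκBα–green luciferase fusion and unfused red luciferase, in 0.5% FBS medium; compounds up to 46 uM, 4 h at 37C. Green/red luminescence ratio, filter-overlap corrected, fitted to concentration-response curves.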
(In qHTS, concentration-response curves come from the screen itself.)

Where [1] appears, read: measured here: CBR red luminescence, cell number.
[2] abbreviates: measured here: IkBa-CBG green luminescence.

As usually defined, the AC50 is the concentration at which the activity in the assay is half-maximal.

With `O=C(CN1c2cccc3cccc(c23)S1(=O)=O)NC1CCCCC1`, under setting [1], the half-maximal activity concentration (AC50) was 0.146 µM [rising, full curve, poor fit].

On to `Cc1ccc2c(c1)[C@H]1[C@H](CO2)[C@H](c2ccccc2)[C@]2(C)C(=O)Nc3ccc(Cl)cc3C(=O)N12`, for which the AC50 under setting [1] was 20.6 µM [falling, single point].

For `O=C(CCc1c[nH]c2ccccc12)NCCOc1ccccc1`, under setting [1], the AC50 was 3.16 µM [rising, full curve, poor fit].

In the case of `COc1ccccc1-c1nn2c(-c3ccco3)nnc2s1`, under setting [1], the AC50 is 7.94 µM [rising, partial curve, poor fit].

Regarding `CC(=O)Nc1cccc(NC(=O)CSc2nc3ccccc3o2)c1`, the concentration at half-maximal activity (AC50) under setting [1] was 29.1 µM [falling, single point].

Regarding `Cn1c(=O)cc(SCC(=O)NCCCN2CCN(c3ccc(F)cc3)CC2)c2ccccc21`, the concentration at half-maximal activity (AC50) under setting [1] is 35.5 µM [falling, single point].

For `COc1ccc2c(c1OC)C(=O)N1N=C(c3ccc(Cl)cc3)CC21` (stereo not drawn), the concentration at half-maximal activity (AC50) under setting [1] was 18.4 µM [falling, single point].

`CCOC(=O)C1CCCN1C(=O)c1ccc(OC)c(Br)c1` (stereo not drawn): the half-maximal activity concentration (AC50) under setting [1] is 2.24 µM [rising, partial curve].

In the case of `Cc1ccc(NC(=O)/C=C/c2ccco2)nc1`, the half-maximal activity concentration (AC50) was 10.3 µM [falling, partial curve] under setting [1] and 2.06 µM [falling, full curve] under setting [2].

With `CN(C(=O)COC(=O)c1cc(-c2ccc(Cl)s2)nc2ccccc12)C1CCS(=O)(=O)C1` (stereo not drawn), the AC50 under setting [1] was 3.16 µM [rising, single point].

With `O=C(NCCN1CCCCC1)Nc1cccc(C(F)(F)F)c1`, under setting [1], the concentration at half-maximal activity (AC50) was 15.8 µM [rising, single point].

Turning to `O=C(Nc1ccccc1C(=O)O)c1ccc(Br)c(S(=O)(=O)NCc2ccccc2)c1`, the AC50 under setting [1] is 12.6 µM [falling, single point].

As to `COc1ccc(-c2c(C)n([O-])c3c([n+]2=O)CCC3)cc1OC`, the AC50 under setting [1] was 0.82 µM [rising, full curve, poor fit].

As for `CCOC(=O)c1csc(NC(=O)CC2CCCC2)n1`, the AC50 under setting [1] was 15.8 µM [falling, single point].

Turning to `COc1ccc(S(=O)(=O)N(C)C[C@H]2Oc3ccc(NC(=O)Cc4ccccc4)cc3C(=O)N([C@H](C)CO)C[C@@H]2C)cc1`, the AC50 under setting [1] was 14.6 µM [rising, partial curve].

In the case of `CCCCNC(=O)N(O)C1N(/N=C/c2ccccc2OC)C(=S)SC1(C)C` (stereo not drawn), the concentration at half-maximal activity (AC50) under setting [1] is 35.5 µM [falling, single point].

`Cc1n[nH]c(C)c1S(=O)(=O)N(CC(=O)Nc1ccc2c(c1)OCCO2)c1ccc(C(C)C)cc1`: the AC50 runs as follows: under setting [1], 35.5 µM [falling, single point]; under setting [2], 1 µM [rising, full curve, poor fit].

`CNS(=O)(=O)c1cc(S(=O)(=O)NC)c2cccc3c2c1NC3=O`: the half-maximal activity concentration (AC50) under setting [1] is 35.5 µM [falling, single point].

`CCOC(=O)c1nnc(-c2ccccc2)[nH]c1=O`: under setting [1], the concentration at half-maximal activity (AC50) is 14.1 µM [falling, single point].

`Cc1cccc(Oc2nc(-c3ccccc3)cc(C)c2S(C)(=O)=O)c1C`: under setting [1], the AC50 is 6.51 µM [rising, partial curve, poor fit].

In the case of `O=S(=O)(NCC(c1ccco1)N1CCc2ccccc2C1)c1ccc(F)cc1` (stereo not drawn), the AC50 under setting [1] is 3.66 µM [rising, partial curve, poor fit].

Take `COCCCNc1c2c3c(cccc3[nH]c1=O)C(=O)c1ccccc1-2`: the AC50 under setting [1] is 6.51 µM [falling, partial curve, poor fit] and the AC50 under setting [2] is 11.6 µM [rising, partial curve, poor fit].

`CN(C)c1oc(-c2cccs2)nc1C#N`: the concentration at half-maximal activity (AC50) under setting [1] was 0.562 µM [rising, full curve, poor fit].

`Cc1cc(Cl)ccc1OCC(=O)NC1CCCC1`: the AC50 under setting [1] is 8.2 µM [rising, partial curve].

Consider `Cc1noc(C)c1COC(=O)CCCc1c[nH]c2ccccc12`, for which the half-maximal activity concentration (AC50) under setting [1] was 6.51 µM [falling, single point].

For `Cc1ccc(C)c2nc3sc(C(=O)N4CCCc5ccccc54)c(N)c3cc12`, the half-maximal activity concentration (AC50) under setting [1] is 31.6 µM [rising, single point].

Turning to `COc1ccc(C(=O)NOCc2ccccc2)cc1`, under setting [1], the concentration at half-maximal activity (AC50) was 7.31 µM [falling, partial curve].

For the compound `COC(=O)CN1C(=O)Nc2ccc(Cl)cc2C1c1ccccc1` (stereo not drawn), the AC50 under setting [1] is 6.31 µM [rising, single point].

As for `CC(C)=CCC/C(C)=C/CNC(=O)C[C@H]1C[C@H](C(=O)N2CCCCC2)[C@@]2(C)c3[nH]c4cc(-c5ccco5)ccc4c3CCN2C1=O`, the AC50 under setting [1] was 16.4 µM [falling, single point].

In the case of `O=C(OCC(=O)N1CCOCC1)c1ccc2ccccc2c1`, the AC50 under setting [1] was 11.6 µM [falling, partial curve].

On to `COc1ccccc1NC(=S)NC(=O)/C=C/c1ccco1`, for which the AC50 under setting [1] is 0.651 µM [falling, full curve, poor fit].

As to `Cc1cc(C)nc(SCC(=O)NC2=NC(=O)C(C)S2)n1` (stereo not drawn), the half-maximal activity concentration (AC50) under setting [1] is 6.51 µM [rising, single point].

For `COC(=O)c1cc(N=Cc2c(O)c3ccccc3oc2=O)cc(C(=O)OC)c1`, under setting [1], the AC50 was 2.82 µM [falling, full curve].

Regarding `C=CCNC(=S)NNC(=O)c1cccn(Cc2ccc(Cl)c(Cl)c2)c1=O`, the concentration at half-maximal activity (AC50) under setting [1] was 10 µM [falling, partial curve].

Turning to `COc1ccc(OCCNC(=O)c2cc(C3CC3)nc3c2cnn3C(C)C)cc1`, under setting [1], the concentration at half-maximal activity (AC50) was 18.4 µM [falling, single point].

Take `CCCC(CCC(=O)Nc1nccs1)C(=O)O` (stereo not drawn): the concentration at half-maximal activity (AC50) under setting [1] was 35.5 µM [rising, partial curve, poor fit].

For `NC(=O)C1CCN(Cc2cccc(OCc3ccccc3)c2)CC1`, the concentration at half-maximal activity (AC50) under setting [1] is 8.91 µM [falling, partial curve].

On to `CSc1cccc(NC(=O)CN(c2cccc(C)c2)S(C)(=O)=O)c1`, for which, under setting [1], the AC50 was 0.184 µM [falling, full curve, poor fit].

For `O=C(CCc1ccccc1)Nc1ncc([N+](=O)[O-])s1`, the half-maximal activity concentration (AC50) is 0.316 µM [falling, full curve] under setting [1] and 3.55 µM [rising, partial curve, poor fit] under setting [2].

Consider `CCOC(=O)c1ccc(NCCOC)c([N+](=O)[O-])c1`, for which the AC50 under setting [1] was 17.8 µM [rising, single point].

Turning to `CC1(C)CC1C(=O)Nc1ccc([N+](=O)[O-])cc1Br` (stereo not drawn), the concentration at half-maximal activity (AC50) under setting [1] was 14.6 µM [rising, partial curve].

Take `COc1ccc(OC)c(C2C(C#N)=C(N)N(N(C)C)C3=C2C(=O)CCC3)c1` (stereo not drawn): the AC50 under setting [1] is 7.08 µM [rising, partial curve, poor fit].

Regarding `CCN(CC(=O)Nc1c(F)cccc1F)C(=O)c1cc(-c2cccs2)nn1-c1ccccc1`, the half-maximal activity concentration (AC50) under setting [1] is 2.31 µM [rising, single point].

In the case of `COc1cc2c(cc1OC)CN(C(=O)c1ccc(Cl)c(S(=O)(=O)N3CCCC3)c1)CC2`, the AC50 under setting [1] is 16.4 µM [rising, single point].

Regarding `CCOC(=O)C1CCCN(CC(=O)Nc2c(C(=O)OC)[nH]c3ccc(Cl)cc23)C1` (stereo not drawn), the AC50 under setting [1] is 11.6 µM [falling, partial curve, poor fit].

On to `COC(=O)CC1C(=O)NC(C)=C1C(=O)OC` (stereo not drawn), for which the AC50 under setting [1] was 35.5 µM [falling, single point].

For the compound `COc1cc2c(cc1OC)CN(CC(=O)NC(=O)NC1CCCCC1)CC2`, under setting [1], the AC50 was 0.794 µM [rising, full curve, poor fit].

Regarding `O=C(O)c1ccc(-c2nnn(Cc3cccc(C(F)(F)F)c3)n2)cc1`, the half-maximal activity concentration (AC50) under setting [1] was 10 µM [rising, partial curve, poor fit].

Regarding `CC(C)c1nc2ccccn2c1NC1CCCCC1`, under setting [1], the half-maximal activity concentration (AC50) is 10 µM [falling, partial curve].

In the case of `COCCOC(=O)c1[nH]c2c(c1C)C(=O)CC(c1cccs1)C2` (stereo not drawn), the AC50 under setting [2] is 22.4 µM [falling, partial curve, poor fit].

Take `CC(C)c1nnc(NC(=O)c2c(O)c3cccc4c3n(c2=O)CCC4)s1`: the AC50 under setting [1] was 14.1 µM [falling, single point].

As to `O=c1c2ccsc2ncn1Cc1cccc(C(F)(F)F)c1`, under setting [1], the half-maximal activity concentration (AC50) was 3.55 µM [falling, partial curve, poor fit].

In the case of `Cc1ccc(CNc2ccc3c(c2)ncn3C(C)C)cc1`, the half-maximal activity concentration (AC50) under setting [1] was 14.1 µM [rising, partial curve, poor fit].

As for `CC(=O)c1ccc(OCC(O)CN2CCc3ccccc3C2)cc1` (stereo not drawn), the AC50 under setting [1] is 3.98 µM [rising, full curve].

Turning to `C[n+]1c2n(c3ccccc31)N=C(c1ccc(Cl)cc1)CS2`, the concentration at half-maximal activity (AC50) reads like this: under setting [1], 16.4 µM [rising, single point]; under setting [2], 20.6 µM [falling, partial curve, poor fit].

For `CCN1C(=O)/C(=C\N2CCN(c3ccc(F)cc3)CC2)SC1=S`, the concentration at half-maximal activity (AC50) under setting [1] was 29.1 µM [rising, single point].

For `CCC(C)N(C(=O)COc1ccc(Cl)c2cccnc12)C1CCS(=O)(=O)C1` (stereo not drawn), under setting [1], the concentration at half-maximal activity (AC50) is 8.2 µM [falling, partial curve].

Regarding `O=C(Nc1cccc(S(=O)(=O)N2CCCCC2)c1)c1ccc2c(=O)n3c(nc2c1)CCCCC3`, the AC50 under setting [1] was 4.61 µM [falling, full curve].

For `O=C(CCl)Nc1cccc(Oc2cnccn2)c1`, under setting [1], the concentration at half-maximal activity (AC50) was 11.2 µM [falling, partial curve].

Regarding `COc1ccc(C(C#N)N2CCC(c3ccccc3)=N2)cc1` (stereo not drawn), the AC50 under setting [1] was 3.55 µM [rising, partial curve].

On to `CCOc1ccccc1/C=N/Nc1nc2ccccc2o1`, for which the concentration at half-maximal activity (AC50) under setting [1] was 5.62 µM [falling, single point].

For `CCOC(=O)C1=CN(Cc2ccco2)S(=O)(=O)NC1c1ccc(Br)cc1F` (stereo not drawn), under setting [1], the concentration at half-maximal activity (AC50) was 18.4 µM [falling, single point].

Turning to `O=C(CCc1ccccc1)NCC(=O)N/N=C/c1ccc(O)cc1O`, the half-maximal activity concentration (AC50) under setting [1] is 35.5 µM [falling, single point].
